Where a name gives a salt, the structure may show the parent alone. ± gives the standard deviation of the averaged measurements. The list shows a part of the results. Many values rest on one well or one pass, so single values are uncertain.
Tested on: RAW 264.7
Test: HMGB1-induced TNF-alpha production relative to HMGB1-stimulated control; higher = more TNF-alpha secretion (less inhibition)
Details: stimulus: HMGB1 5 ug/ml, 18 h
[1] = compound concentration: 1 ug/ml

Row | SMILES | HMGB1-induced TNF-alpha production (compound concentration: 3 uM) [%] | HMGB1-induced TNF-alpha production [1] [%]
1 | O=C(c1ccc2c(c1)OCCO2)N1CCCCC1 | 101 | –
2 | Nc1cc(Cl)c(NC2=NCCN2)c(Cl)c1 [p-Aminoclonidine hydrochloride] | 85.3 | –
3 | C(=C\c1ccccc1)/CN1CCN(C(c2ccccc2)c2ccccc2)CC1 | 93.1 | –
4 | NO [Hydroxylamine hydrochloride] | 108 | –
5 | Cc1c(-c2cnccn2)ssc1=S [Oltipraz] | 67.3 | –
6 | Nc1nc(Cl)nc2c1ncn2[C@@H]1O[C@H](CO)[C@@H](O)[C@H]1O | 110 | –
7 | Nc1nc(Cl)nc2c1ncn2[C@@H]1O[C@H](CO)[C@@H](O)[C@H]1O [2-Chloroadenosine] | 75.1 | –
8 | O=c1[nH]c2ccccc2n1CCCN1CCN(C(c2ccccc2)c2ccccc2)CC1 [Oxatomide] | 88.3 | –
9 | O=c1c(O[C@@H]2O[C@H](CO)[C@H](O)[C@H](O)[C@H]2O)c(-c2ccc(O)c(O)c2)oc2cc(O)cc(O)c12 | 106 | –
10 | CC(=O)OCC(=O)[C@@]1(O)CCC2C3CCC4=CC(=O)C=C[C@]4(C)[C@@]3(F)[C@@H](O)C[C@@]21C (stereo partly drawn) | 44.6 | –
11 | C[C@@H]1C[C@H]2[C@@H]3CCC4=CC(=O)C=C[C@]4(C)[C@@]3(F)[C@@H](O)C[C@]2(C)[C@@]1(O)C(=O)COP(=O)(O)O | 47.9 | –
12 | CCN(CC)CCNC(C(=O)OCCC(C)C)c1ccccc1 (stereo not drawn) | 92.4 | –
13 | C[C@]12CC[C@@H]3c4ccc(OC(=O)c5ccccc5)cc4CC[C@H]3[C@@H]1CC[C@@H]2O [estradiol benzoate] | – | 76
14 | C[C@]12CC[C@@H]3c4ccc(OC(=O)c5ccccc5)cc4CC[C@H]3[C@@H]1CC[C@@H]2O | 92.5 | –
15 | CN1CCN(C(c2ccccc2)c2ccccc2)CC1 [Cyclizine hydrochloride] | 51.4 | –
16 | CN1CCN(C(c2ccccc2)c2ccccc2)CC1 | 65.9 | –
17 | CC[C@H](CO)Nc1nc(NCc2ccccc2)c2ncn(C(C)C)c2n1 [Roscovitine] | 87.4 | –
18 | OCCN(CCO)c1nc(N2CCCCC2)c2nc(N(CCO)CCO)nc(N3CCCCC3)c2n1 | 101 | –
19 | OCCN(CCO)c1nc(N2CCCCC2)c2nc(N(CCO)CCO)nc(N3CCCCC3)c2n1 [Dipyridamole] | 83.6 ± 18 | –
20 | O=C(O)c1ccccc1C(=O)Nc1ccc(S(=O)(=O)Nc2nccs2)cc1 | 71.4 | –
21 | O=C(O)c1ccccc1C(=O)Nc1ccc(S(=O)(=O)Nc2nccs2)cc1 [Phthalylsulfathiazole] | 96.4 | –
22 | C[N+](C)(C)CC(=O)O [Betaine hydrochloride] | 53.3 | –

Full records, quoted from the list:
Nc1cc(Cl)c(NC2=NCCN2)c(Cl)c1 [p-Aminoclonidine hydrochloride] is listed with HMGB1-induced TNF-alpha production (compound concentration: 3 uM) [%]: 85.3
NO [Hydroxylamine hydrochloride] is listed with HMGB1-induced TNF-alpha production (compound concentration: 3 uM) [%]: 108

The listing continues.

Row | SMILES | HMGB1-induced TNF-alpha production (compound concentration: 3 uM) [%] | HMGB1-induced TNF-alpha production [1] [%]
23 | C[N+](C)(C)CC(=O)O | 91.2 | –
24 | N[C@@H](CS(=O)O)C(=O)O [L-Cysteinesulfinic Acid] | 85.8 | –
25 | NC[C@@H]1O[C@@H](O[C@H]2[C@H](O)[C@@H](O[C@H]3O[C@H](CO)[C@@H](O)[C@H](N)[C@H]3O)[C@H](N)C[C@@H]2N)[C@@H](O)[C@H](O)[C@H]1O | 95.1 | –
26 | NC[C@@H]1O[C@@H](O[C@H]2[C@H](O)[C@@H](O[C@H]3O[C@H](CO)[C@@H](O)[C@H](N)[C@H]3O)[C@H](N)C[C@@H]2N)[C@@H](O)[C@H](O)[C@H]1O [Kanamycin A sulfate] | 89.7 | –
27 | COC(=O)[C@H](NC(=O)c1cc(-c2ccccc2)nc2ccccc12)c1ccccc1 | 83 | –
28 | N#Cc1cc2nc(O)c(O)nc2cc1[N+](=O)[O-] [CNQX disodium] | 85.5 | –
29 | COC(=O)C1=C(C#N)NC(C)=C(C(=O)OC(C)C)C1c1cccc([N+](=O)[O-])c1 (stereo not drawn) [Nilvadipine] | 85.7 | –
30 | C[C@@H](CN1CCC(Cc2ccccc2)CC1)[C@@H](O)c1ccc(O)cc1 [Ro 25-6981 hydrochloride] | 108 | –
31 | CC1CC(OC(=O)c2ccccc2O)CC(C)(C)C1 (stereo not drawn) | 70.4 | –
32 | CC1CC(OC(=O)c2ccccc2O)CC(C)(C)C1 (stereo not drawn) [Homosalate] | 125 | –
33 | C[C@H](CCC(=O)O)[C@H]1CC[C@H]2[C@@H]3[C@@H](O)C[C@@H]4C[C@H](O)CC[C@]4(C)[C@H]3CC[C@]12C [Urosiol] | 108 | –
34 | C[C@H](CCC(=O)O)[C@H]1CC[C@H]2[C@@H]3[C@@H](O)C[C@@H]4C[C@H](O)CC[C@]4(C)[C@H]3CC[C@]12C | 72.1 | –
35 | C[C@@H](O)[C@@H]1NC(=O)[C@H](CCCCN)NC(=O)[C@@H](Cc2c[nH]c3ccccc23)NC(=O)[C@H](Cc2ccccc2)NC(=O)[C@@H](NC(=O)[C@H](N)Cc2ccccc2)CSSC[C@@H](C(=O)N[C@H](CO)[C@@H](C)O)NC1=O [Octreotide] | 89.8 | –
36 | C#C[C@]1(O)CC[C@H]2[C@@H]3CCC4=CCCC[C@@H]4[C@H]3CC[C@@]21C [Lynestrenol] | 65.4 | –
37 | O=C(Nc1ccncc1)c1cc([N+](=O)[O-])ccc1Cl | 113 | –
38 | Cc1cc(NC(=O)Nc2ccc3c(ccn3C)c2)sn1 | 79.7 | –
39 | O=C(CCCN1CCN(c2ccccn2)CC1)c1ccc(F)cc1 | 99.9 | –
40 | O=C(CCCN1CCN(c2ccccn2)CC1)c1ccc(F)cc1 [Azaperone] | 108 ± 17 | –
41 | Cc1cn([C@@H]2O[C@H](CO)[C@@H](O)[C@H]2O)c(=O)nc1N [5-Methylcytidine] | – | 91.7
42 | CN1CCC(=C2c3ccccc3Sc3ccccc32)CC1 [Pimethixene maleate] | 68 | –
43 | CN1CCC(=C2c3ccccc3Sc3ccccc32)CC1 | 76.4 | –

From the supplement of paper PMC3682954
